These are yes or no findings as the source states them, for the method shown. For part of these data: In cells and extracts the contact can be indirect. Some binding calls cover weakened binding; strength is not graded here. Values belong to the substance of their own block, whether it stands above or below them.
Experiments:
[1] = molecular target: FAM111A SPD T563P (human) (UniProt Q96PZ2); assay: SEC; Superdex 200 Increase 10/300 GL, MS300 buffer (20 mM Tris pH 7.5, 300 mM NaCl, 0.5 mM TCEP), 100 μL of 1 mg/mL SPD protein (32 μM); both purified
[2] = molecular target: FAM111A SPD V347D (human) (UniProt Q96PZ2); assay: as above
[3] = molecular target: full-length FAM111A with a C-terminal Flag or HA tag (human) (UniProt Q96PZ2); assay: co-IP; anti-Flag M2 Affinity Gel on lysates (2 mg protein) in NP-40 lysis buffer (50 mM Tris-HCl pH 7.4, 150 mM NaCl, 0.1% NP-40), blots with anti-Flag and anti-HA

The chains behind the UniProt entries cited, without tags or fusion partners. Where a name states a change or a piece, a line headed by the entry shows the natural chain unless it says otherwise. A line that says so, or that is headed by a name, gives the form on record, which may keep a tag or linker.
UniProt Q96PZ2: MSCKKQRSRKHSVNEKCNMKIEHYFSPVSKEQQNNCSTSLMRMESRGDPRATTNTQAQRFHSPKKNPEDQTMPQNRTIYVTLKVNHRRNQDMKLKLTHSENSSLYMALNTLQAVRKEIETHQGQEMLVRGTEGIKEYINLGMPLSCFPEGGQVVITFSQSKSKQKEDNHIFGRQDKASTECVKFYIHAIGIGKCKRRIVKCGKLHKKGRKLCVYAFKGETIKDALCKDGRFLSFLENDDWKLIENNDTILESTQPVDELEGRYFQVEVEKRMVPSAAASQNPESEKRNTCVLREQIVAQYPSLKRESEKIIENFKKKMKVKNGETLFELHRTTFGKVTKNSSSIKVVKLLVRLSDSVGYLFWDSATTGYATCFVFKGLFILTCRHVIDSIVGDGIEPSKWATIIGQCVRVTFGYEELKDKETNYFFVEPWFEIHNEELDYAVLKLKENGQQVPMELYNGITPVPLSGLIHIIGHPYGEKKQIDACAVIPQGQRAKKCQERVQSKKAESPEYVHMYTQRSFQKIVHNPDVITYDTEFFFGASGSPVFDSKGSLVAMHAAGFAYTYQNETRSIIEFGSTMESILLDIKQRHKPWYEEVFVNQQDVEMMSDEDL
FAM111A SPD T563P (Q96PZ2, form named): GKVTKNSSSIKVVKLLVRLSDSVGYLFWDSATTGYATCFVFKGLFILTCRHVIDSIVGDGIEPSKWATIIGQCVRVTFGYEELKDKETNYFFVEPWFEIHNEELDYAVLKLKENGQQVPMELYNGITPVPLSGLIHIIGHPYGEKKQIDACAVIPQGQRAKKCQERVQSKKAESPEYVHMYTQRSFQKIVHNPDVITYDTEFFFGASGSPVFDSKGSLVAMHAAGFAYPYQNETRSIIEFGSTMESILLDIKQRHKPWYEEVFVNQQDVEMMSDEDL
FAM111A SPD V347D (Q96PZ2, form named): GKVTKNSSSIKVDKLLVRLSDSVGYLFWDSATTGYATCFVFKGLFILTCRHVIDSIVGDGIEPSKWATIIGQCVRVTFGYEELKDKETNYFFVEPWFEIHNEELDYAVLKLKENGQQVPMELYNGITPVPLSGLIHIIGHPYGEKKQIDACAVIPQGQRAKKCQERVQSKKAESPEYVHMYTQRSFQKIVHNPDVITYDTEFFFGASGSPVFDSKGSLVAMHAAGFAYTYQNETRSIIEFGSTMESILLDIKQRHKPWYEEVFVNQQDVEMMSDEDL

binding [1]: binds
Substance: FAM111A SPD T563P (from UniProt Q96PZ2 335-611) (domain or fragment)

binding [2]: no binding (tested: 32 μM)
Substance: FAM111A SPD V347D (from UniProt Q96PZ2 335-611) (domain or fragment)

binding [3]: binds
Substance: full-length FAM111A with a C-terminal Flag or HA tag (from UniProt Q96PZ2 1-611)
